The other results are listed elsewhere or left out. The data scatter; read single values as rough.
Tests used:
[1] = compound: ClCC(=O)N[C@@H]1CCCc2ccccc12; experiment: log2 mean competition ratio of IA-DTB cysteine labelling (DMSO/compound) (log2 ratio); higher = stronger cysteine engagement by compound; conditions: treatment time: 4 h, cell line lysate: HEK293T
Protocol: (§1)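 IA-DTB competitive cysteine chemoproteomics in HEK293T RIPA lysate. Lysates were treated with compound 29 or 30 at 50 or 200 µM for 4 h, then IA-DTB (500 µM, 1 h), trypsin-digested, NeutrAvidin-enriched and analysed by diaPASEF. Competition ratio = intensity DMSO / intensity compound (n=4 treated, n=64 DMSO); binding: mean log2 CR ≥ 1 and p ≤ 0.05 plus QC filters. Target is the cysteine site.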

The chains behind the UniProt entries cited, without tags or fusion partners. Where a name states a change or a piece, a line headed by the entry shows the natural chain unless it says otherwise. Residues count along the entry.
UniProt Q6YHU6: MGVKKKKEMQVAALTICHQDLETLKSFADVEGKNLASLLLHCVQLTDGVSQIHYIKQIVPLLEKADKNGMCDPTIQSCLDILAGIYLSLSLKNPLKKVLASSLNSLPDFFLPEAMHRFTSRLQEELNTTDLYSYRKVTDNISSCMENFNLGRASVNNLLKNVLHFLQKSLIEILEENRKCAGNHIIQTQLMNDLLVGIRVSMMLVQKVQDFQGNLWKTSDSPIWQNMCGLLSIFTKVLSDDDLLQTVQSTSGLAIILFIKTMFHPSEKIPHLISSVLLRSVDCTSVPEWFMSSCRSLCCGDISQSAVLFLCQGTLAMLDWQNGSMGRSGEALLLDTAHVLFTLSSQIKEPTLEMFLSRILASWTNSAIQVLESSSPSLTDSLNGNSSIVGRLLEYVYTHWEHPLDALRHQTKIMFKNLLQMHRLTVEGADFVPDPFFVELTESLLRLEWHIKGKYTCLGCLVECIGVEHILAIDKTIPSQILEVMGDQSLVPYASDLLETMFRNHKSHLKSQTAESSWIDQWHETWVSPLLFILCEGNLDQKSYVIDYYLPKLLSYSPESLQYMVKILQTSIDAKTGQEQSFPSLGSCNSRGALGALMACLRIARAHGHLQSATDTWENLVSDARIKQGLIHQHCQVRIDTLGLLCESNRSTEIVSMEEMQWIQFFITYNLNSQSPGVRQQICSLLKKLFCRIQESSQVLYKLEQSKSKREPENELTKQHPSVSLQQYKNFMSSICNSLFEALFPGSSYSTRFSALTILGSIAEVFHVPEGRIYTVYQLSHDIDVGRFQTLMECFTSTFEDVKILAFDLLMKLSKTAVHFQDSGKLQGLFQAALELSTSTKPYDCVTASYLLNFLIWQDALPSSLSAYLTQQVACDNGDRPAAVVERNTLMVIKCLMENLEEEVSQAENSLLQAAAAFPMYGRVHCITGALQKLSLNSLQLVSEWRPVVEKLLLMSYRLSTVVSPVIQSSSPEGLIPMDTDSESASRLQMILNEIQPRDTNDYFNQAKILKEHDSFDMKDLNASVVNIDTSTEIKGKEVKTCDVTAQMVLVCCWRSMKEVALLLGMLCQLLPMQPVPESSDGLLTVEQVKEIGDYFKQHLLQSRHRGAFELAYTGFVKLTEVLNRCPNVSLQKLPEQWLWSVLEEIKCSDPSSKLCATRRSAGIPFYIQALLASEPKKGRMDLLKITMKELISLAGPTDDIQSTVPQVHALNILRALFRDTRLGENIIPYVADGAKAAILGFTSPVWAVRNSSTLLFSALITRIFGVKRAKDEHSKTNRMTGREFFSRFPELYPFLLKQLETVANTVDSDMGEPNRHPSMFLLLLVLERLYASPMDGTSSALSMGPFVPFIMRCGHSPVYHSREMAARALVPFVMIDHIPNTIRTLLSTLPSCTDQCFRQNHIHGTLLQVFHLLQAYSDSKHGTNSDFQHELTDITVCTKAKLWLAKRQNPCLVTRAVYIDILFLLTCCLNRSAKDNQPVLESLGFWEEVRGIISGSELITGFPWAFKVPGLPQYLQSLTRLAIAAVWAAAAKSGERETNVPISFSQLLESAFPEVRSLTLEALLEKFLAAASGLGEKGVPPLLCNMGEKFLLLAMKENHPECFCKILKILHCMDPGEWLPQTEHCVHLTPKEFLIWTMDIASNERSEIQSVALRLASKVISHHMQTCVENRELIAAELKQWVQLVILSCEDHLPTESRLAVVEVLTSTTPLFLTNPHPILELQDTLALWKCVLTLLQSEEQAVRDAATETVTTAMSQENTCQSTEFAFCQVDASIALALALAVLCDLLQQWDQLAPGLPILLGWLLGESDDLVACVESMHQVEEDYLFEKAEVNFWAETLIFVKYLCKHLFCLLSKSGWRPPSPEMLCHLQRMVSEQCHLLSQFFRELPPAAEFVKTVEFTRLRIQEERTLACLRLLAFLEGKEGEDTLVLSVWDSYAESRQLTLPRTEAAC
UniProt Q99426: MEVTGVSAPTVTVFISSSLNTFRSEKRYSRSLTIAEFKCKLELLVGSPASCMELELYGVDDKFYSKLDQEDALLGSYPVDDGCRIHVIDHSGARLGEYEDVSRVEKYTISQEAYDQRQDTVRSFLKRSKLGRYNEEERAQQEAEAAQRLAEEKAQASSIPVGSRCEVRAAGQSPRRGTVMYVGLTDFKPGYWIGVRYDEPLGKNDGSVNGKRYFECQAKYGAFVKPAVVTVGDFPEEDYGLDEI
UniProt Q8WUY1: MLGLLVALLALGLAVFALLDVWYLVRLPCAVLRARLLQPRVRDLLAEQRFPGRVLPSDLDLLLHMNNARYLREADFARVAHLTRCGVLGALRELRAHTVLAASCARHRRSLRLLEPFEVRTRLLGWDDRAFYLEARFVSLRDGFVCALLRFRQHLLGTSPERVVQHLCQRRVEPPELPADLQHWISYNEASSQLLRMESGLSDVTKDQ
UniProt Q9UK61, 945-964: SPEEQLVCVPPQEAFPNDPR
UniProt Q03519, whole entry, looked up: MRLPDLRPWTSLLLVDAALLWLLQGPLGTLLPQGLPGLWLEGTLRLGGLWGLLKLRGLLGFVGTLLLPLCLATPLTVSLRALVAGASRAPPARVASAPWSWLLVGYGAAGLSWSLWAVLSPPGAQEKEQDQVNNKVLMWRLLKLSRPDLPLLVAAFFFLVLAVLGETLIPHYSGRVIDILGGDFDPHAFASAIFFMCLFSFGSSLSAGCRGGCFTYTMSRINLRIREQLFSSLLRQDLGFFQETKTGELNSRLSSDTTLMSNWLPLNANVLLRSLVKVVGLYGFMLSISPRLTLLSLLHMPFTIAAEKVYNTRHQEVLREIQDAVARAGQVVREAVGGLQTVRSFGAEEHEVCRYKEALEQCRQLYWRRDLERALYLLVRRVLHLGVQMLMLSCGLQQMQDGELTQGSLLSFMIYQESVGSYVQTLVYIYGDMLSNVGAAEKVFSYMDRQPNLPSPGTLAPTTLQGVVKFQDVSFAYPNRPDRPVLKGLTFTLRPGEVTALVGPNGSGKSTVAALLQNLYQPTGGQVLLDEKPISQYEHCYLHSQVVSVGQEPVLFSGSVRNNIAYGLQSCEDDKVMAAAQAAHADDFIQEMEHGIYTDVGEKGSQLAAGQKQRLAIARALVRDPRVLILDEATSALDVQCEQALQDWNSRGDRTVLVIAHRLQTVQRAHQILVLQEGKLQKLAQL
UniProt Q13395: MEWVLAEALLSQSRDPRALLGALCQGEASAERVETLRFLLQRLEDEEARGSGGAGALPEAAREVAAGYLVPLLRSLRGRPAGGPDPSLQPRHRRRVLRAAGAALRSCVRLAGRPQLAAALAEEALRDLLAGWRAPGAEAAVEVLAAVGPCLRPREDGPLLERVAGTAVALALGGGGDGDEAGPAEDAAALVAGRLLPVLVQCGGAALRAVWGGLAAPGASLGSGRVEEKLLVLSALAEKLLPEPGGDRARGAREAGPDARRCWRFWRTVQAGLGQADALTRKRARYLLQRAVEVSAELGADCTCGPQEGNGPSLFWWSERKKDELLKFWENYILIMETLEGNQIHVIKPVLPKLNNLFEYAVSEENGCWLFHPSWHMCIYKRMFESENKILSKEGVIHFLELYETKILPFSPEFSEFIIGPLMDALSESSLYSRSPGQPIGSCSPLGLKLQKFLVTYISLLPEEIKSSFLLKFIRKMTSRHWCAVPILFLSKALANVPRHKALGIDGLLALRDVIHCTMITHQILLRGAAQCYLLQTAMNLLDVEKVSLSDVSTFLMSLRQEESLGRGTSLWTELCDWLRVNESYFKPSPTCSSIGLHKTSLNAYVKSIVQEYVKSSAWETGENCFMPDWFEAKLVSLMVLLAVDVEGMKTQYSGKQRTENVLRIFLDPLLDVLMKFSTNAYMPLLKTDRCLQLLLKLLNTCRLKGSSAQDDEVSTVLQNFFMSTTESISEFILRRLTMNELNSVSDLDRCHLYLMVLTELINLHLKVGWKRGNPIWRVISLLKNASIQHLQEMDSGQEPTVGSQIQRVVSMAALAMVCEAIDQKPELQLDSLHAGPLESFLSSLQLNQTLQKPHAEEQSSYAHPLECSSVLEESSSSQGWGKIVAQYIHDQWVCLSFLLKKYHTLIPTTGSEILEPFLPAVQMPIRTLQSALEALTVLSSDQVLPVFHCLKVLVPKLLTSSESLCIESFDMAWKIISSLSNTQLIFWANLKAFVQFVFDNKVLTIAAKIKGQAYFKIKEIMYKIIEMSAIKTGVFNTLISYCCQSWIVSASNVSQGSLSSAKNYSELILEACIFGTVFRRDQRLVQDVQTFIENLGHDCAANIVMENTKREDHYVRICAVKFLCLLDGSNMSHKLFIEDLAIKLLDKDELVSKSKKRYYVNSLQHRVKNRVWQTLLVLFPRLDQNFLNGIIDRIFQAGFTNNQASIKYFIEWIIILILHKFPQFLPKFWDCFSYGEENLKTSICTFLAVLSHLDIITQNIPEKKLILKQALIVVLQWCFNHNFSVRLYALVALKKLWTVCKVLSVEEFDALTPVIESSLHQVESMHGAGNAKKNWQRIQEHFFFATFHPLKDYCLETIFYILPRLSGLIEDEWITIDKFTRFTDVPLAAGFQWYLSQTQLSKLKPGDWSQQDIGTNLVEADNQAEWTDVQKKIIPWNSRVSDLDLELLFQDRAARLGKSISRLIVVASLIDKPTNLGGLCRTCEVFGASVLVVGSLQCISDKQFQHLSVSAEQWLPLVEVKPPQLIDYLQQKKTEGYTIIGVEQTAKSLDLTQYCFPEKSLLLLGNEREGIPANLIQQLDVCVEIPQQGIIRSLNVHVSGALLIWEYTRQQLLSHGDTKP
UniProt Q6P1X5, whole entry, looked up: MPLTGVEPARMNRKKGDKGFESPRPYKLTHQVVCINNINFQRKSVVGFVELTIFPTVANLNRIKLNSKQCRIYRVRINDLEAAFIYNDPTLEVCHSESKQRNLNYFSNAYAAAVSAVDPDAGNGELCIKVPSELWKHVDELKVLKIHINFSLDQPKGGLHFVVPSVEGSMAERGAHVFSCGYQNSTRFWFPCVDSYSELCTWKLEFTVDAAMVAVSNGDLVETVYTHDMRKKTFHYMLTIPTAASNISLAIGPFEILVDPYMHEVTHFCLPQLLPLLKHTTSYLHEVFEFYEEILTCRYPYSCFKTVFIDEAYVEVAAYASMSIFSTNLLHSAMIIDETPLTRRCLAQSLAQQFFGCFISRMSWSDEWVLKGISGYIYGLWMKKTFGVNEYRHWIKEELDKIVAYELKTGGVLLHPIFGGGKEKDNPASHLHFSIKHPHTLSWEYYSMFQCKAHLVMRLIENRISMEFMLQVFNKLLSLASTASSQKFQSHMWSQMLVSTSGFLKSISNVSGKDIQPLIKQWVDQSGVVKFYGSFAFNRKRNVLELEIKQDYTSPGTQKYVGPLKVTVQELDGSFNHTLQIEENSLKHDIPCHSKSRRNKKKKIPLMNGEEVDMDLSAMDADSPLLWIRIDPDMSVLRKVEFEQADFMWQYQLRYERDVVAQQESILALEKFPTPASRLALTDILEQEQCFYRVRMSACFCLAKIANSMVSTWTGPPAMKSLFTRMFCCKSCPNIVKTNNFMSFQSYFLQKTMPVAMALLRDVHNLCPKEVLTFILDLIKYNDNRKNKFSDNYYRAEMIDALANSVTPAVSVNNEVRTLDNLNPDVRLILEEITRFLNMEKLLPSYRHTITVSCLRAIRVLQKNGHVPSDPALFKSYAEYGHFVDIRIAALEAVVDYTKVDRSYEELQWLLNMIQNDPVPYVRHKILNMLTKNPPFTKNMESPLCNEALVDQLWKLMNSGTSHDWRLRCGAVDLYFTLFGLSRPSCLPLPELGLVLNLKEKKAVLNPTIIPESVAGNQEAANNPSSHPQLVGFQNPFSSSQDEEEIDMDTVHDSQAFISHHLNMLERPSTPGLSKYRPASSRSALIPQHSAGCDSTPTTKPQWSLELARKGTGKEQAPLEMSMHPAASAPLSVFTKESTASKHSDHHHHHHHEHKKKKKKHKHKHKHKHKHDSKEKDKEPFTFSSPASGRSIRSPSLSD
UniProt Q96FV9: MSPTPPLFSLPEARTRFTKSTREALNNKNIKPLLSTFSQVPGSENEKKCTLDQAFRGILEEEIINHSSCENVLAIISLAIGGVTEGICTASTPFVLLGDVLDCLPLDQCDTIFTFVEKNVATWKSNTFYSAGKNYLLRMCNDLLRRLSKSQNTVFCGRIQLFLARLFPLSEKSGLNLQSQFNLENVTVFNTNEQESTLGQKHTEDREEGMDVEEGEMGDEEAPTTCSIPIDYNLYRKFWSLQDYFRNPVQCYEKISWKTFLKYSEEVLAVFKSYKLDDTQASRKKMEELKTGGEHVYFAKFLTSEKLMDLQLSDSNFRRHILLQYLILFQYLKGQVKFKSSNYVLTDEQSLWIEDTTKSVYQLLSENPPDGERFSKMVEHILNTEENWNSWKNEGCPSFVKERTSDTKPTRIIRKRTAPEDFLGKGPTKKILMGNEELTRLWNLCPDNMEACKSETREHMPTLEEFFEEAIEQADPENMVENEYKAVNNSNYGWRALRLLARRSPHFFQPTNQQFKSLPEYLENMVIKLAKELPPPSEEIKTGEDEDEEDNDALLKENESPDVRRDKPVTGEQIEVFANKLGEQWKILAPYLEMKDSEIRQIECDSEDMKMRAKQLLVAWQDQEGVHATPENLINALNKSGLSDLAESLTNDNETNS

[2] = compound: ClCC(=O)N[C@H]1CCCc2ccccc12; experiment: as above; conditions: treatment time: 4 h, cell line lysate: HEK293T
Protocol: as §1

Target | log2 mean competition ratio ([1]; 50 µM) | log2 mean competition ratio ([1]; 200 µM) | log2 mean competition ratio ([2]; 50 µM) | log2 mean competition ratio ([2]; 200 µM)
TFB2M C383 (UniProt Q9H5Q4) | 0.141 | 0.0875 | 0.173 | 0.0593
THADA C646 (UniProt Q6YHU6) | -0.141 | -0.0838 | 0.0376 | 0.0244
TGS1 C357 (UniProt Q96RS0) | -0.157 | 0.112 | -0.304 | 0.0574
TASOR2 C1432 (UniProt Q5VWN6) | -0.0571 | 0.0506 | -0.191 | 0.0933
TELO2 C518 (UniProt Q9Y4R8) | 0.026 | -0.209 | 0.0441 | -0.453
SYT2 C275 | 0.0464 | 0.216 | -0.131 | 0.195
TARS2 C603 (UniProt Q9BW92) | 0.205 | 0.0594 | -0.185 | -0.041
TACO1 C112 (UniProt Q9BSH4) | -0.295 | 0.302 | -0.676 | 0.0925
TBCB C216 (UniProt Q99426) | -0.117 | -0.104 | 0.13 | 0.0791
TBC1D4 C225 (UniProt O60343) | -0.19 | 0.187 | -0.167 | 0.113
THEM6 C168 (UniProt Q8WUY1) | 0.245 | 0.0943 | 0.347 | -0.127
TASOR C761 (UniProt Q9UK61) | -0.431 | 0.495 | -0.505 | 0.362
TEX30 C21 (UniProt Q5JUR7) | -0.0395 | -0.126 | -0.271 | -0.128
TASOR C1260 (UniProt Q9UK61) | -0.247 | 0.085 | -0.805 | -0.0725
THOC2 C1111 | -0.00169 | -0.097 | -0.416 | -0.383
TBC1D24 C29 (UniProt Q9ULP9) | -0.144 | 0.0123 | -0.317 | 0.152
TCEAL1 C90 (UniProt Q15170) | -0.207 | -0.0671 | -0.155 | -0.0234
TASOR C690 (UniProt Q9UK61) | 0.0423 | 0.0948 | 0.0616 | 0.193
TEPSIN C493 | -0.114 | -0.0811 | 0.0576 | -0.0371
TFIP11 C383 (UniProt Q9UBB9) | 0.1 | 0.0407 | 0.0195 | -0.139
TAOK3 C795 (UniProt Q9H2K8) | 0.279 | 0.0383 | 0.183 | -0.346

Target | log2 mean competition ratio ([1]; 50 µM) | log2 mean competition ratio ([1]; 200 µM) | log2 mean competition ratio ([2]; 50 µM) | log2 mean competition ratio ([2]; 200 µM)
TBC1D4 C74 (UniProt O60343) | -0.0158 | 0.126 | -0.0432 | 0.0503
THADA C1585 (UniProt Q6YHU6) | 0.267 | 0.146 | 0.359 | -0.186
TAP2 C353 (UniProt Q03519) | 0.00893 | 0.872 | 0.215 | 0.783
TANC1 C131 (UniProt Q9C0D5) | 0.0706 | 0.204 | 0.14 | 0.127
TARBP1 C202 (UniProt Q13395) | 0.644 | -0.096 | -0.412 | -0.126
TADA3 C255 (UniProt O75528) | 0.204 | 1.05 | 0.0649 | 0.87
TAX1BP1 C675 (UniProt Q86VP1) | -0.439 | -0.0104 | -0.0182 | 0.548
TBL3 C477 (UniProt Q12788) | 0.286 | -0.339 | 0.045 | -0.404
THADA C1354 (UniProt Q6YHU6) | -0.201 | 0.0623 | -0.0632 | 0.00716
TASOR2 C623 (UniProt Q5VWN6) | -0.626 | 0.0569 | 0.103 | 0.0365
TGDS C5 (UniProt O95455) | -0.183 | -0.711 | 0.418 | 0.122
THOP1 C246 (UniProt P52888) | -0.0976 | 0.521 | -0.136 | 0.318
TAF3 C431 (UniProt Q5VWG9) | -0.104 | 0.0261 | -0.28 | 0.175
TAF2 C303 (UniProt Q6P1X5) | 0.0759 | -0.227 | -0.369 | -0.171
TAB1 C235 (UniProt Q15750) | -0.178 | -0.388 | 0.0358 | 0.128
TAPT1 C487 (UniProt Q6NXT6) | 0.412 | -0.106 | -0.0287 | -0.106
TALDO1 C250 (UniProt P37837) | 0.486 | 0.355 | -0.0935 | 0.314
THOC1 C251 (UniProt Q96FV9) | -0.193 | -0.245 | 0.0206 | -0.158
TARBP1 C24 (UniProt Q13395) | -0.104 | 0.322 | -0.358 | 0.276
SZT2 C2893 (UniProt Q5T011) | -0.333 | -0.225 | -0.296 | -0.252
TGFBRAP1 C582 (UniProt Q8WUH2) | -0.0783 | -0.348 | -0.2 | -0.143

Target | log2 mean competition ratio ([1]; 50 µM) | log2 mean competition ratio ([1]; 200 µM) | log2 mean competition ratio ([2]; 50 µM) | log2 mean competition ratio ([2]; 200 µM)
THOC5 C608 (UniProt Q13769) | -0.024 | -0.312 | -0.279 | -0.192
TGFBR1 C86 (UniProt P36897) | -0.0886 | 0.33 | -0.255 | -0.0155
TACC1 C715 (UniProt O75410) | 0.484 | 0.176 | 0.469 | 0.201
TBC1D15 C686 (UniProt Q8TC07) | -0.108 | 0.0114 | 0.403 | 0.144
TADA2B C123 (UniProt Q86TJ2) | 0.223 | -0.0316 | -0.0756 | -0.0759
TACC3 C20 | -0.0828 | -0.0699 | 0.286 | 0.178
TBC1D9B C308 (UniProt Q66K14) | 0.268 | -0.241 | 0.00889 | 0.0281
TAOK2 C623 (UniProt Q9UL54) | -0.185 | 0.471 | -0.751 | 0.0527
TCEAL4 C34 (UniProt Q96EI5) | -0.0593 | -0.198 | 0.118 | 0.00368
TDRD7 C103 (UniProt Q8NHU6) | -0.0823 | 0.0223 | 0.0679 | 0.163
TFIP11 C445 (UniProt Q9UBB9) | -0.0978 | 0.119 | -0.0953 | -0.0574
TCAF1 C576 (UniProt Q9Y4C2) | 0.0616 | 0.206 | -0.383 | 0.189
TENT2 C217 (UniProt Q6PIY7) | 0.198 | 0.196 | -0.221 | 0.0292
TECPR1 C462 (UniProt Q7Z6L1) | -0.456 | 0.0831 | -0.125 | 0.0767
THUMPD3 C505 (UniProt Q9BV44) | -0.138 | -0.0839 | 0.213 | -0.0445
TARBP2 C158 (UniProt Q15633) | -0.0764 | -0.256 | -0.302 | -0.276
THTPA C228 (UniProt Q9BU02) | -0.0132 | 0.182 | -0.26 | 0.189
TBL2 C391 (UniProt Q9Y4P3) | -0.029 | -0.111 | 0.0854 | -0.142
TASOR C952 (UniProt Q9UK61) | -0.016 | -0.0742 | 0.0473 | -0.234

Part of the list above, as tab-separated lines.
Target	log2 mean competition ratio ([1]; 50 µM)	log2 mean competition ratio ([1]; 200 µM)	log2 mean competition ratio ([2]; 50 µM)	log2 mean competition ratio ([2]; 200 µM)
THOC2 C1111	-0.00169	-0.097	-0.416	-0.383
TEPSIN C493	-0.114	-0.0811	0.0576	-0.0371

From the supplement of paper PMC11732987, “Enantioselective OTUD7B fragment discovery through chemoproteomics screening and high-throughput optimisation” (Communications Chemistry, 2025)
